Experimental data reported in publication PMC12358912.
No constants are given. Whether binding was seen depends on the method and setting. Some entries that bind do so weakly or less than the wild type.

Target: T1, SMC1 (UniProt Q14683)
T1 sequence: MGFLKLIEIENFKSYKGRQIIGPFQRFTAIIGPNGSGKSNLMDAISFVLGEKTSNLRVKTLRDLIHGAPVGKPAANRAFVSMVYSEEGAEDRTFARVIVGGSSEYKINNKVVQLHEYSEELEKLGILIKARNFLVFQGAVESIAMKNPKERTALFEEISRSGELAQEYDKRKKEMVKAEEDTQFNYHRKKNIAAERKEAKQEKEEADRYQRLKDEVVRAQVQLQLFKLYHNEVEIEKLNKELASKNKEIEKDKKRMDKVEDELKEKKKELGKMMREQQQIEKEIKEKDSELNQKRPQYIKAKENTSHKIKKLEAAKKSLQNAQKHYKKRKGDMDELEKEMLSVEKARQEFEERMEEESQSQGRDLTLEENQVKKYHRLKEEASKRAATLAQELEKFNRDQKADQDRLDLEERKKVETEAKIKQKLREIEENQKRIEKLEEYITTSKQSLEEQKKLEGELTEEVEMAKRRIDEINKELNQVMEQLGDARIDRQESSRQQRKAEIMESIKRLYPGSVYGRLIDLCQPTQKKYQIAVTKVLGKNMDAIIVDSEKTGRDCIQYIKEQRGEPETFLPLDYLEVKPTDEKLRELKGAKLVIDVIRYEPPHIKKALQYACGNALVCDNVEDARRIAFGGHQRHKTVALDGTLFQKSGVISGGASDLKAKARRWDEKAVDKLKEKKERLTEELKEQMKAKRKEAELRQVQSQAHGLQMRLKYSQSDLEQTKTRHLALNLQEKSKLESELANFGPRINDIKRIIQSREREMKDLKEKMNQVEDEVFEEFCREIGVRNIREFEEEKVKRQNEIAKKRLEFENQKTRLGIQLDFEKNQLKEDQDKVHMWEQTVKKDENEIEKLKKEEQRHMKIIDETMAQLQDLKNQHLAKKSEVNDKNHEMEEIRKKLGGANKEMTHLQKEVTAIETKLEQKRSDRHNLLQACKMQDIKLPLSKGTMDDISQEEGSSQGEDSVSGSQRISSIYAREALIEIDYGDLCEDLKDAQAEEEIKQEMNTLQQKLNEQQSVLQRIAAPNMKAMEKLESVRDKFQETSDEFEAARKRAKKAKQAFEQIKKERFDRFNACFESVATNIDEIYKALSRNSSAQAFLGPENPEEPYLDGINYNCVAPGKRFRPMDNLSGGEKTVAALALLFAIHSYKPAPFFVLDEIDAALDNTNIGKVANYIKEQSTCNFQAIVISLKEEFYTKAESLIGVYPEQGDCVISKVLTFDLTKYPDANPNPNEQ
Test: mass photometry; in solution; the purified cohesin Trimer measured alone; peak at the mass expected of the three-subunit complex

B1: SCC1 (protein, UniProt O60216 1-631)
chain: MFYAHFVLSKRGPLAKIWLAAHWDKKLTKAHVFECNLESSVESIISPKVKMALRTSGHLLLGVVRIYHRKAKYLLADCNEAFIKIKMAFRPGVVDLPEENREAAYNAITLPEEFHDFDQPLPDLDDIDVAQQFSLNQSRVEEITMREEVGNISILQENDFGDFGMDDREIMREGSAFEDDDMLVSTTTSNLLLESEQSTSNLNEKINHLEYEDQYKDDNFGEGNDGGILDDKLISNNDGGIFDDPPALSEAGVMLPEQPAHDDMDEDDNVSMGGPDSPDSVDPVEPMPTMTDQTTLVPNEEEAFALEPIDITVKETKAKRKRKLIVDSVKELDSKTIRAQLSDYSDIVTTLDLAPPTKKLMMWKETGGVEKLFSLPAQPLWNNRLLKLFTRCLTPLVPEDLRKRRKGGEADNLDEFLKEFENPEVPREDQQQQHQQRDVIDEPIIEEPSRLQESVMEASRTNIDESAMPPPPPQGVKRKAGQIDPEPVMPPQQVEQMEIPPVELPPEEPPNICQLIPELELLPEKEKEKEKEKEDDEEEEDEDASGGDQDQEERRWNKRTQQMLHGLQRALAKTGAESISLLELCRNTNRKQAAAKFYSFLVLKKQQAIELTQEEPYSDIIATPGPRFHII
B1 was tested, and the binding was “binds”.
